# The campaign covered roughly 320,000 compounds. About 2,100 (0.66%) were called active. The shares of active, inactive and inconclusive entries below differ from those in the screen. The call rests on the fitted dose curve; in most records, active means well fitted inhibition curve with a large enough effect in the signal ratio, with a control signal flat (not every such curve was filed as active); inconclusive means small, poorly fitted or top-dose-only effect, or effect the other way, or a change in a side signal; inactive means flat fitted curve, though single readings scatter; the % refers to the signal ratio. Potencies of inconclusive entries are doubtful fits and often do not repeat.
# Test: qHTS Assay for Lipid Storage Modulators in Drosophila S3 Cells
# Conditions: BODIPY lipid droplet fluorescence, 18-24 h, cells fed with added oleic acid; lipid storage change, negative = inhibition: at 46.1 µM (top of the series) unless noted
# Summary of the method: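 Drosophila S3 cells got compounds at several concentrations plus oleic acid (400 uM solution). Laser-scanning cytometry with 488 nm excitation read lipid droplets at 500-530 nm and cells at 575-640 nm. Percent activity was relative to 20 uM Triacsin C.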
# On the % scale 0 is the no-effect control and ±100 the full control effect; potency means the concentration at half of the fitted maximal effect.
Structure (SMILES),"lipid storage change, negative = inhibition",Potency
COC(=O)C1=CNC=C(C(=O)OC)C1c1ccccc1Cl,inconclusive: 48.4%,
COc1cc(-c2c(-c3cc(OC)c(OC)c(OC)c3)noc2C)ccc1F,,"inconclusive: 13 µM [activator, partial curve]"
Cc1nc2ncnn2c(C)c1C/C=C/c1ccccc1,inconclusive: -15.8%,
CCN(CC)CCCN(Cc1cc2cc3c(cc2[nH]c1=O)OCO3)C(=S)Nc1ccc(OC)cc1,inconclusive: 13.3%,
CCC(C(=O)OCC(=O)NC(=O)c1ccccc1OC)c1ccccc1 (stereo not drawn),inconclusive: 37%,
O=C(Nc1ccccc1)NC1(C(=O)NCCCN2CCOCC2)CCCCC1,inconclusive: -14%,
Cc1ccn2cc(C(=O)N3CCN(c4cnn(-c5ccccc5)c(=O)c4Cl)CC3)nc2c1,,"inconclusive: 1.64 µM [activator, partial curve]"
Cc1cc(Br)cn2ccnc12,,"inconclusive: 29.1 µM [activator, single point]"
CN1N=C(C(=O)N2CCCC(N3CCN(c4ccc(F)cc4)CC3)C2)CCC1=O (stereo not drawn),inconclusive: 15.8%,
CCOC(=O)c1ccc(CSc2nnc(-c3ccncc3)n2N)cc1,inconclusive: 5.83%,
CCc1ccc(NC(=O)c2cnn(-c3ccccc3)c2C)cc1,inconclusive: 0.342%,
Cc1cccc(N2CCN(C(=O)C3CCC(=O)N(Cc4ccccc4F)C3)CC2)c1C (stereo not drawn),,"inconclusive: 25.9 µM [falling, single point]"
O=C(NNc1ccc(-c2csnn2)cc1)c1cc(Cl)cc(Cl)c1,inconclusive: 15.9%,
O=C(COC(=O)c1nn(-c2ccccc2C(F)(F)F)cc1O)c1ccc(OC(F)F)cc1,inconclusive,
CCn1cnc2c1c(=O)n(CC(=O)Nc1cc(C)on1)c(=O)n2Cc1ccccc1,inconclusive: -15.6%,
COc1cc(NC(=S)NCCCN2CCOCC2)cc(OC)c1,inconclusive: 18.2%,
CC1CCCCC1NC(=O)C1CCN(c2c3c(nc4ncnn24)CCC3)CC1 (stereo not drawn),,"inconclusive: 29.1 µM [activator, single point]"
CCN(CC)C(=O)CSc1nc2ncc(Br)cc2[nH]1,inconclusive: 4.47%,
Cc1nn(C(C)C(=O)NCc2cccs2)c(C)c1[N+](=O)[O-] (stereo not drawn),inconclusive: -39.6%,
COc1ccc(S(=O)(=O)N2CCCC(C(=O)NCc3ccccn3)C2)cc1Cl (stereo not drawn),inconclusive: 61.6%,
COc1ccc(C(CCN2CCCC2)c2c(O)cc(OC)cc2OC)cc1 (stereo not drawn),inconclusive: 5.02%,
CCOC(=O)COn1c(SCC(=O)OCC)nc2ccccc2c1=O,inconclusive: -52.8%,
COc1ccccc1Cn1c(C(C)C)nc2ccccc21,inactive,
COn1c(-c2ccc(Cl)cc2Cl)nc2ncccc21,inconclusive: -70.2%,
Cc1ccc(C(=O)OC(C)C(=O)NC2CCCCC2C)cc1S(=O)(=O)N1CCCCC1 (stereo not drawn),,"inconclusive: 2.91 µM [activator, single point]"
O=c1c(Cl)c(Cl)cnn1-c1ccccc1,,"inconclusive: 2.91 µM [falling, full curve]"
S=c1[nH]nc(-c2ccccn2)n1/N=C/c1ccc(-c2ccccc2Cl)o1,inconclusive: 6.55%,

Structure (SMILES),"lipid storage change, negative = inhibition",Potency
CCCc1c(O)c2ccccc2[nH]c1=O,inactive,
O=C(CCC(=O)N1CCOc2ccc(Cl)cc21)NCCN1CCOCC1,inconclusive: 28.3%,
O=C(O)CCc1ccc(-c2ccc(F)cc2)n1NC(=O)c1ccco1,,"inconclusive: 0.651 µM [falling, partial curve, poor fit]"
Cc1cc(C(=O)N2CCCC(C(=O)c3ccc4ccccc4c3)C2)n(C)n1 (stereo not drawn),,active: 25.9 µM
CC1CCCC(NC(=O)Cn2cc3c(n2)CCCCC3)C1C (stereo not drawn),inconclusive: 5.88%,
CCOc1nc(N2CCOCC2)nc(N2CCOCC2)n1,inconclusive: -2.84%,
CC(C)(C)NC(=O)c1cc(NC(=O)c2ccco2)cc(NC(=O)c2ccco2)c1,inconclusive: -47.8%,
CCCC(C)NC(=O)C1c2ccccc2Oc2ccccc21 (stereo not drawn),,"inconclusive: 18.4 µM [activator, single point]"
COc1ccc(COC(=O)Nc2c(SC)nsc2SC)cc1,inconclusive: -3.66%,
CC(=O)Nc1ccc(NC(=O)CSc2nc3ccccc3nc2N2CCCCC2)cc1,inconclusive: -74.9%,
Cc1oc(CSCCSCc2cc(C(=O)O)c(C)o2)cc1C(=O)O,inconclusive: 51.3%,
COc1ccc(-c2nn(-c3ccccc3)cc2/C=N/Nc2ccc(S(N)(=O)=O)cc2[N+](=O)[O-])cc1OC,inconclusive: -33.3%,
O=C(NCCCO)c1c(O)c2cccc3c2n(c1=O)CCC3,inconclusive: -17.1%,
CC1Oc2ccccc2N(CC(=O)NC2CCCCC2)C1=O (stereo not drawn),inconclusive: -4.31%,
COC(=O)NCC(c1ccc2c(c1)OCO2)N1CCN(c2ccc(OC)cc2)CC1 (stereo not drawn),inconclusive: 41.5%,
Cc1ccc(C(=O)Nc2nnc(CC(=O)N/N=C/c3ccncc3)s2)cc1,inconclusive: 3.02%,
CCC(C)(C)NC(=O)C(c1ccc(F)cc1)N(Cc1ccccc1)C(=O)c1cnccn1 (stereo not drawn),,"inconclusive: 2.91 µM [activator, single point]"
O=C(Cn1nc(Cc2cccnc2)c2ccccc2c1=O)N1CCN(C(=O)c2ccco2)CC1,inconclusive: 20.1%,
N=C1C(=O)OCC1c1cc(Cl)ccc1NC(=O)Nc1ccccc1 (stereo not drawn),inconclusive: -22.3%,
Cc1ccc(/C=N/NC(=O)c2ccccn2)s1,inconclusive: 16.7%,
CC(/C=N/NC(=O)c1ccncc1)=C\c1ccc(C(C)C)cc1,,"inconclusive: 2.91 µM [falling, full curve]"
Cc1nnc(Nc2ccccc2F)s1,inconclusive: 12.9%,
COc1ccc(-n2c(SCC(=O)NCC3CCCO3)nc3c(c2=O)SCC3)cc1 (stereo not drawn),inconclusive: 28.4%,
COc1ccccc1C(=O)NC(C)c1nc2ccccc2[nH]1 (stereo not drawn),inconclusive: -2.64%,
CCc1nn(CC(=O)Nc2ccc(Br)c(C)c2)c(=N)s1,inconclusive: -34.3% [cytotoxic] [at 0.00295 µM],
O=C(Nc1c(Cl)cccc1Cl)C1CCC1,inconclusive: -2.1%,

# Two records drawn at random from those above:
Structure (SMILES),"lipid storage change, negative = inhibition",Potency
COc1ccc(-n2c(SCC(=O)NCC3CCCO3)nc3c(c2=O)SCC3)cc1 (stereo not drawn),inconclusive: 28.4%,
O=C(O)CCc1ccc(-c2ccc(F)cc2)n1NC(=O)c1ccco1,,"inconclusive: 0.651 µM [falling, partial curve, poor fit]"
